Laboratory results: article PMC8265641, “Enterococcal PrgU Provides Additional Regulation of Pheromone-Inducible Conjugative Plasmids”

Experiments:
[1] = biological target: PrgU-His (Enterococcus faecalis plasmid pCF10) (UniProt Q5G3Q2); assay: EMSA; conditions: 0-13 uM PrgU, 100 nM DNA, EMSA: 20 min at ~25 C, 1% agarose run at 4 C, buffer as previously described (not given), protein details: C-terminal 10xHis with 3C protease site, probe letters rebuilt from the primers and the genome
[2] = biological target: PrgU-His (Enterococcus faecalis plasmid pCF10) (UniProt Q5G3Q2); assay: MST; conditions: bound equally well as IGR RNA, 50 nM PrgU, RNA up to 40 uM; MST: 20 mM KPi pH 7.0, 150 mM NaCl, 0.05% Tween 20, 0.1 U/ul RNase inhibitor, ~25 C; recombinant protein; protein details: C-terminal 10xHis with 3C protease site; probe letters rebuilt from the primers and the genome

“AATATCGAATTCTAATACGACTCACTATAGGGCATGTCAATGAATGAAGCAGATTTTAAACTCATCCTTTCTCAATTTCTTTTAAAAGATGAGACAAGCGAAAACCCAAAACTTCACCCTCAAAAAATTGAAAAAAGAAAAGCTCCAATCCAAAATAGTCTGGAGAATTATATTACTGAACTCATAAACAATGAAGTTGAGATTGACCTTTCAGATTACAAAGCAGCACTCAAACAATTAAAGAAAATGAAAGCTGCGGAATACGACGAGTTGGTCATGGAAATTGTCGAAGATTATGAACTTTTGACTGAAAAAAAGAATAAAGTATTCCCTTCAGGCAGTACCCCTTATCCTGAACAAATCATGAACCGAACAGTAAAAGAAATTACAGCAGAGATTCAAGTAACTTCTTCAGATGACCTCAATAAACGAGAGCGCAAAGAACAAAAAGCAAAAAGTTTGTTGGCTGATTTTTCTTGGTTACAAGGAAAAAGAAAAAATCGCAAGTAGAAGCTTTGGCCC (double strand) [control dsDNA]”: binds ([1]; affinity similar to IGR dsDNA, recombinant protein).
“GGGCAUGUCAAUGAAUGAAGCAGAUUUUAAACUCAUCCUUUCUCAAUUUCUUUUAAAAGAUGAGACAAGCGAAAACCCAAAACUUCACCCUCAAAAAAUUGAAAAAAGAAAAGCUCCAAUCCAAAAUAGUCUGGAGAAUUAUAUUACUGAACUCAUAAACAAUGAAGUUGAGAUUGACCUUUCAGAUUACAAAGCAGCACUCAAACAAUUAAAGAAAAUGAAAGCUGCGGAAUACGACGAGUUGGUCAUGGAAAUUGUCGAAGAUUAUGAACUUUUGACUGAAAAAAAGAAUAAAGUAUUCCCUUCAGGCAGUACCCCUUAUCCUGAACAAAUCAUGAACCGAACAGUAAAAGAAAUUACAGCAGAGAUUCAAGUAACUUCUUCAGAUGACCUCAAUAAACGAGAGCGCAAAGAACAAAAAGCAAAAAGUUUGUUGGCUGAUUUUUCUUGGUUACAAGGAAAAAGAAAAAAUCGCAAGUAGAAGCUUUGGCCC [control RNA (same length as IGR)]”: binds [2].
“GGGCCAAAGCTTTGATTCACCTACTTTCTGAACCAAGTAGAAAAAGAGCCATGCAACACGTTGTTTGCACGGCTCTTACGAGTAGTTCCAGTACAAACAATGCGTGAAAGCATTGAATTATTCCACAAGCGGGTCATTTTTAGAAAATGAGCGTGCTTGTTACTTGGTTTTTTTATTTTTTCAACAAGTTAACAGACAACAAAAAAAGCGGGGAACATATACATGAACTGTATACATTCCCCGCTGCTCCAACATTTATACAACTAATAAAAACAATTCACTGTAAAAACTTTTCCTAGACAAATAAAGGAGTTTAAAAAAGTCTAGAATTTTACATAAAAAATTGTTATACTATACGTTGTAACTAATGTTGCAACAAACGAGAACCGAGTAGAGTTCATGTCATACCATGAATTGTTTAACTGCCCCCTAGGATTGCCGTCCTATGGCAGTCGGTTCTTAATTTGTTTAATTGTTACTATGATTTTTTCTAGCCCTATAGTGAGTCGTATTAGAATTCGATAGC (double strand) [IGR dsDNA]”: binds ([1]; low-micromolar affinity, recombinant …).

For at least one entry, the source does not settle the construct or the ends of the probe.
